Test results as given in PubChem BioAssay AID445 (National Center for Advancing Translational Sciences (NCATS), 2006).
The other results are listed elsewhere or left out. The main result of the screen is listed elsewhere. These columns were measured beside it and carry no call. Compounds called inactive in the main read-out are mostly missing here. Potencies come from curve fits of mixed quality, noted in brackets.

Assay: IkB Signaling
Conditions: ABC-DLBCL IkBa-CBG/CBR dual luciferase ratio (green luciferase fused to IkBa over red control in OCI-Ly3 lymphoma cells), 4 h
In short: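 Luminescence ratio of IκBα-fused green versus native red beetle luciferase in OCI-Ly3 cells, 4 h post-doxycycline with compound; red signal alone, scaled from basal (0%) to zero light (-100%), flagged nonspecific or cytotoxic effects.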

[1] = measured here: control luc red channel unless noted

## OC(CN1CCN(c2cccc(C(F)(F)F)c2)CC1)c1c[nH]c2ccccc12 (centres undefined)
[1]
  AC50: 15.8 µM [falling, partial curve]

## CCCCNc1nc(N(C)c2ccccc2)nc(-n2ccnc2)n1
[1]
  AC50: 10 µM [falling, partial curve]

## CCOC(=O)C1CCN(CC(=O)Nc2c(C(=O)OC)[nH]c3ccc(Cl)cc23)CC1
[1]
  AC50: 31.6 µM [falling, partial curve]

## COc1ccccc1NC(=O)N1CCn2c(nc3ccccc32)C1
[1]
  AC50: 5.01 µM [falling, partial curve]

## CCOc1ccc(CCNC(=O)CSCc2nc(-c3cccc(C)c3)oc2C)cc1OCC
[1]
  AC50: 31.6 µM [falling, partial curve]

## CCc1cccc2c(-c3ccccc3)nc(SCC(=O)Nc3ccc(OC)cc3)nc12
[1]
  AC50: 2.51 µM [rising, partial curve]

## Cc1cc2nn(-c3ccccc3)nc2cc1NC(=O)Cc1ccc(Cl)cc1
[1]
  AC50: 2 µM [rising, partial curve]

## C=C(Cl)COc1ccc2c(C)cc(=O)oc2c1
[1]
  AC50: 3.16 µM [rising, partial curve]

## Cc1cccc(C)c1NC(=O)CSc1nc(-c2cccs2)cc(C(F)(F)F)n1
[1]
  AC50: 1.26 µM [rising, full curve, poor fit]

## O=C(COC(=O)c1cc(-c2ccco2)nc2ccccc12)NCc1ccc2c(c1)OCO2
[1]
  AC50: 10 µM [falling, partial curve]

## O=C(Nc1ccc(N2CCN(C(=O)c3ccco3)CC2)c(Cl)c1)c1cccs1
[1]
  AC50: 7.94 µM [falling, full curve]

## O=C(Nc1ccc(F)c(Cl)c1)C1CCCN(S(=O)(=O)c2cccc3nsnc23)C1 (centres undefined)
[1]
  AC50: 10 µM [falling, partial curve]

## COc1ccc(CCN(Cc2nc3ccccc3c(=O)[nH]2)C(=O)c2ccco2)cc1
[1]
  AC50: 15.8 µM [falling, partial curve]

## O=c1c2c3nc4ccccc4nc3n(Cc3ccccc3)c2ncn1Cc1ccco1
[1]
  AC50: 12.6 µM [falling, partial curve]

## Cc1cc(C(=O)Nc2ccccc2C#N)n(-c2ccccc2)n1
[1]
  AC50: 6.31 µM [rising, single point] [measured here: IkB-luc green channel]

## CCc1ccccc1NC(=O)CCc1c(C)nc2cc(-c3ccccc3)nn2c1C
[1]
  AC50: 25.1 µM [falling, partial curve]

## O=C(N/N=C\c1ccccc1O)c1ccccc1O
[1]
  AC50: 0.794 µM [falling, full curve]

## O=C(NC1CC(=O)N(c2ccc(Cl)cc2)C1)C(=O)c1c[nH]c2ccccc12 (centres undefined)
[1]
  AC50: 3.16 µM [rising, single point]

## Cc1ccc2nc3c(cc2c1)CN(Cc1ccco1)C(=NCC1CCCO1)S3 (centres undefined)
[1]
  AC50: 10 µM [falling, partial curve]

## CC1CCCN(CCC(=O)c2ccc(Br)cc2)C1 (centres undefined)
[1]
  AC50: 15.8 µM [falling, partial curve]

## CC(=O)N1CCc2c(sc3c2c(=O)n(CCc2ccccc2)c(=O)n3Cc2ccc(F)cc2)C1
[1]
  AC50: 15.8 µM [falling, partial curve]

## CCOC(=O)Cc1c(C)nc2c(-c3ccc(Cl)cc3)c[nH]n2c1=O
[1]
  AC50: 3.98 µM [falling, partial curve]

## Cc1ccccc1NC(=O)Cn1c(=O)n(CCCCCC(=O)NCc2ccc3c(c2)OCO3)c(=O)c2sccc21
[1]
  AC50: 39.8 µM [falling, single point]

## O=C(Nc1nc(-c2ccc(S(=O)(=O)N3CCCC3)cc2)cs1)C1COc2ccccc2O1 (centres undefined)
[1]
  AC50: 3.16 µM [falling, full curve]

## CCc1ccc(-n2c(CCC(=O)O)ccc2-c2cccs2)cc1
[1]
  AC50: 12.6 µM [falling, partial curve]

## COc1ccc(-c2nsc(NC(=O)c3ccccc3Br)n2)cc1
[1]
  AC50: 5.01 µM [falling, partial curve]

## CCOC(=O)Nc1ccc2c(c1)N(C(=O)CCN1CCOCC1)c1ccccc1S2=O (centres undefined)
[1]
  AC50: 39.8 µM [falling, single point]

## CCCCNC(=O)NS(=O)(=O)c1ccc(NS(=O)(=O)c2ccccc2)cc1
[1]
  AC50: 0.0794 µM [rising, partial curve, poor fit]

## CCOC(=O)c1ccc(NC(=O)CN2C(=O)C(C)(C)c3ccccc32)cc1
[1]
  AC50: 7.94 µM [rising, single point]

## CCCCCCC(c1c(C)n(C)n(-c2ccccc2)c1=O)c1c(C)n(C)n(-c2ccccc2)c1=O
Measured here: IkB-luc green channel
  AC50: 20 µM [falling, single point]
Measured here: control luc red channel
  AC50: 25.1 µM [falling, partial curve]

## Cc1ccc(C)c(NC(=O)c2cnn(-c3ccc(F)cc3F)c2C2CCNCC2)c1
[1]
  AC50: 6.31 µM [falling, partial curve]

## O=C(Nc1ccccc1)N1CC=C(c2ccccc2)CC1
[1]
  AC50: 2 µM [falling, full curve, poor fit]

## CCC(c1nnnn1Cc1ccco1)N(CCc1ccccc1)Cc1cc2cccc(C)c2[nH]c1=O (centres undefined)
[1]
  AC50: 31.6 µM [falling, partial curve]

## CCCC12CN3CC(CCC)(CN(C1)C3c1ccc(OCc3ccccc3)cc1)C2=O (centres undefined)
[1]
  AC50: 39.8 µM [falling, single point]

## Fc1ccccc1C(NCCc1ccc(Cl)cc1)c1nnc(-c2ccccc2)o1 (centres undefined)
[1]
  AC50: 20 µM [falling, partial curve]

## Cc1ccc(-c2nc(-c3cccnc3)no2)cc1
[1]
  AC50: 20 µM [falling, single point]

## COc1ccccc1NC(=O)CN(C)S(=O)(=O)c1cccc2cccnc12
[1]
  AC50: 1.26 µM [rising, partial curve]

## Cc1ccc(Nc2ccc(N3CCN(C(=O)c4cccc([N+](=O)[O-])c4)CC3)nn2)cc1
[1]
  AC50: 20 µM [falling, single point]

## CCN(C(=O)c1sc2nc3n(c(=O)c2c1C)CCCC3)c1ccccc1F
[1]
  AC50: 3.98 µM [rising, partial curve]

## Cc1cccc(OCC(=O)Nc2ccc(S(=O)(=O)N3CCCC3)cc2)c1
[1]
  AC50: 15.8 µM [falling, partial curve]

## CN(C)c1ccc(C(CNC(=O)c2ccc(C(C)(C)C)cc2)N2CCCC2)cc1 (centres undefined)
[1]
  AC50: 20 µM [falling, partial curve]

## Cc1cn2c(=O)cc(COc3ccc(NC(=O)c4ccc(C(C)(C)C)cc4)cc3)nc2s1
[1]
  AC50: 3.16 µM [rising, full curve]

## COc1ccc(-n2nc(C(=O)NCCc3ccc(Cl)cc3)c3c4ccccc4n(C)c3c2=O)cc1
[1]
  AC50: 1 µM [falling, full curve]

## COc1ccc(C2c3c(-c4ccccc4)n[nH]c3C(=O)N2c2ccc(C(=O)O)cc2)c(OC)c1 (centres undefined)
[1]
  AC50: 15.8 µM [falling, partial curve]

## Cc1ccc(-c2cnc(C3CC3)o2)cc1S(=O)(=O)Nc1cccc(C#N)c1
[1]
  AC50: 39.8 µM [falling, single point]

## OCCN(CCO)c1nc(N2CCCCC2)c2nc(N(CCO)CCO)nc(N3CCCCC3)c2n1
[1]
  AC50: 39.8 µM [falling, single point]

## CN(Cc1ccccc1)C(=O)CSc1c2c(nc3ccc(Cl)cc13)CCCC2
[1]
  AC50: 7.94 µM [falling, partial curve]

## Cc1ccc(-c2c(CN3CCN(c4cccc(C)c4C)CC3)csc2C)cc1
[1]
  AC50: 20 µM [falling, single point]

## CCC(C)(C)n1nnnc1CN(Cc1ccc(Cl)cc1)Cc1ccco1
[1]
  AC50: 15.8 µM [falling, partial curve]

## Cc1ccccc1NC(=O)Cn1c(=O)n(CCC(=O)N2CCc3ccccc3C2)c(=O)c2ccccc21
[1]
  AC50: 25.1 µM [falling, partial curve]

## COc1ccc(NS(=O)(=O)c2cc(-c3onc(C)c3C)ccc2C)c(OC)c1
[1]
  AC50: 25.1 µM [falling, partial curve]

## CCC1CN(C(=O)N2CCC(C(=O)NCCCc3ccccc3)CC2)c2cc(C)ccc2O1 (centres undefined)
[1]
  AC50: 5.01 µM [falling, partial curve]

## CCn1c(SCC(=O)Nc2nc3ccc(OC)cc3s2)nc2c1c(=O)n(C)c(=O)n2C
[1]
  AC50: 12.6 µM [falling, partial curve]

## COc1ccc(NC(=O)CCS(=O)(=O)c2cc3c(cc2C)NC(=O)CO3)cc1Cl
[1]
  AC50: 7.94 µM [falling, partial curve]

## CCCc1cnc2c(c1SCC(=O)Nc1ccc([N+](=O)[O-])cc1)c(=O)n(C)c(=O)n2C
[1]
  AC50: 2 µM [falling, full curve]

## Cc1ccc(C2CC(=O)n3nc(-c4ccc(F)cc4)nc3S2)cc1 (centres undefined)
[1]
  AC50: 20 µM [falling, partial curve, poor fit]

## CCCC(C(=O)NCc1ccco1)N(C(=O)CNS(=O)(=O)c1ccc(Cl)cc1)C1CCCC1 (centres undefined)
[1]
  AC50: 3.98 µM [falling, full curve]

## CCOC(=O)c1ccccc1NC(=O)N(Cc1ccc(CC)cc1)Cc1cn[nH]c1-c1ccc(OC)cc1
[1]
  AC50: 20 µM [falling, partial curve]

## COc1cccc(C(=O)N(Cc2ccco2)Cc2cc3cccc(C)c3[nH]c2=O)c1
[1]
  AC50: 7.94 µM [falling, partial curve]

## CCc1ccccc1NC(=O)C1(S(=O)(=O)c2ccc(Cl)cc2)CC1
[1]
  AC50: 1.26 µM [rising, partial curve]

## Cc1ccc(OCC(=O)Nc2ccc(Cl)c(-c3nc4ncccc4o3)c2)cc1C
[1]
  AC50: 25.1 µM [falling, partial curve]

## O=c1oc2ccccc2c(O)c1/C=N/c1ccccn1
[1]
  AC50: 3.16 µM [falling, full curve]

## Cn1nnnc1SCCCNCc1ccc(-c2ccc(Br)cc2)o1
[1]
  AC50: 15.8 µM [falling, single point]
